PMC4466636
These are yes or no findings as the source states them, for the method shown. Binding seen in cells or lysates may run through a third protein. Some binding calls cover weakened binding; strength is not graded here. One block for each molecule: values may come before it.

By UniProt entry, the sequences of proteins in these tests, tags left out. Where a name states a change or a piece, a line headed by the entry shows the natural chain unless it says otherwise.
UniProt P26039: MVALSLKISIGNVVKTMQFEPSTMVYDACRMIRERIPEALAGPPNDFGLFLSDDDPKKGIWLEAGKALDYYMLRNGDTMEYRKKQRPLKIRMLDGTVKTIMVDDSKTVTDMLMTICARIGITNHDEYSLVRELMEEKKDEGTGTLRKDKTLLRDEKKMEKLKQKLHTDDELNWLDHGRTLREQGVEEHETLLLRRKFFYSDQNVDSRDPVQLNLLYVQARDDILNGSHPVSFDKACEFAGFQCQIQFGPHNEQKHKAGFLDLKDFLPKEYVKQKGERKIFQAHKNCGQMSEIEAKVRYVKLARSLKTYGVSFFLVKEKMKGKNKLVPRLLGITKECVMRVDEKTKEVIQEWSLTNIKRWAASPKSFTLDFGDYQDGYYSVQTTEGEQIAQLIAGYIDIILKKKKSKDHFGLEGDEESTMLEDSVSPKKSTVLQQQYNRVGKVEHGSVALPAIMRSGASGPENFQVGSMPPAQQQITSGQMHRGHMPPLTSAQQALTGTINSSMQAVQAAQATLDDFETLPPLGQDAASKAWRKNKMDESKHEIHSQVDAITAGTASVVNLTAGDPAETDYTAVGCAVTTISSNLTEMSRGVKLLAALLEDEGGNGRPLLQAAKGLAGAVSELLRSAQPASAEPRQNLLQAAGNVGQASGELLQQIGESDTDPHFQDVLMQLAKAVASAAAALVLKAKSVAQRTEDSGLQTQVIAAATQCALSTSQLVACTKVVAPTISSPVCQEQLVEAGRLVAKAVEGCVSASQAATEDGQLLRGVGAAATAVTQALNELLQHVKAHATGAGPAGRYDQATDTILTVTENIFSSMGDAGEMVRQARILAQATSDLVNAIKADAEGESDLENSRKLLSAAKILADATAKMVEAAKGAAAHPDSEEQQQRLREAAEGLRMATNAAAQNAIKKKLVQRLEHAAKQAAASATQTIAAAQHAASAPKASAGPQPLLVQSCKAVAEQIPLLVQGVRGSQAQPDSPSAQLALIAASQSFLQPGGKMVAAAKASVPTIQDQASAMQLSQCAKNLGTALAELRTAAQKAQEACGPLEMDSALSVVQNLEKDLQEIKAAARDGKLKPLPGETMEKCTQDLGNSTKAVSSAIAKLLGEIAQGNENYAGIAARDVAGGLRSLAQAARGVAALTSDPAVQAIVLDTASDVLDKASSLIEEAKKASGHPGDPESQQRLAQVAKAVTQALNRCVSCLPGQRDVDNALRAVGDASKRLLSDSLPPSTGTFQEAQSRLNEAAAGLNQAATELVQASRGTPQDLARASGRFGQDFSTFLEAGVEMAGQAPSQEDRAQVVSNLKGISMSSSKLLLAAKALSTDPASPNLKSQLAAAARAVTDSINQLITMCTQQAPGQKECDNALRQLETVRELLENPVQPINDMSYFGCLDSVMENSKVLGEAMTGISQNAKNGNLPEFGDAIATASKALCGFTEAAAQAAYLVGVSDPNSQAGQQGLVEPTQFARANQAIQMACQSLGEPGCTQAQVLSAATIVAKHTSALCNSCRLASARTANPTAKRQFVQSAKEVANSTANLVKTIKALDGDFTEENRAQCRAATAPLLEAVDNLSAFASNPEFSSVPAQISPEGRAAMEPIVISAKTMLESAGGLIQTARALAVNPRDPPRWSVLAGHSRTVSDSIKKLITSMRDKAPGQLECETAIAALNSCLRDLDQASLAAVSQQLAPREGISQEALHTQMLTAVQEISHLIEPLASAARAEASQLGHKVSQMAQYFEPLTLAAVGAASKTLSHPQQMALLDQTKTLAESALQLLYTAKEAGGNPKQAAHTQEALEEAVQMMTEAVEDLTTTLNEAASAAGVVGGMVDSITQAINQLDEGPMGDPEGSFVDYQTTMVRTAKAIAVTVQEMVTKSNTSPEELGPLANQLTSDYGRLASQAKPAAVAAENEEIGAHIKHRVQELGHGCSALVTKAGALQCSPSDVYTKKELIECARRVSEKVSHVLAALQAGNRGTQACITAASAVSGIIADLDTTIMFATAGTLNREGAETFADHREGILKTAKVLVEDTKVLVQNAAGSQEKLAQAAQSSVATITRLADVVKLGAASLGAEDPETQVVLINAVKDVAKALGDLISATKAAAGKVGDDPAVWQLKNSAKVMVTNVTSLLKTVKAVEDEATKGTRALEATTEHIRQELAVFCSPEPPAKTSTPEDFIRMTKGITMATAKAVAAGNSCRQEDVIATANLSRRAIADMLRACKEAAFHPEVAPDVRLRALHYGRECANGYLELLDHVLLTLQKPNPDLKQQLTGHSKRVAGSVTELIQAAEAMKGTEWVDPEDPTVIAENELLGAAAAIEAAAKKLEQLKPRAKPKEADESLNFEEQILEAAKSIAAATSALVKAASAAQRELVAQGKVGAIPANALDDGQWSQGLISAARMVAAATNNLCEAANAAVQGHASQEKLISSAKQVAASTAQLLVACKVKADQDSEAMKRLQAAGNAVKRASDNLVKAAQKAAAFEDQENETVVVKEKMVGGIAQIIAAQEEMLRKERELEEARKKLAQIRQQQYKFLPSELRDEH
UniProt Q9QUM0: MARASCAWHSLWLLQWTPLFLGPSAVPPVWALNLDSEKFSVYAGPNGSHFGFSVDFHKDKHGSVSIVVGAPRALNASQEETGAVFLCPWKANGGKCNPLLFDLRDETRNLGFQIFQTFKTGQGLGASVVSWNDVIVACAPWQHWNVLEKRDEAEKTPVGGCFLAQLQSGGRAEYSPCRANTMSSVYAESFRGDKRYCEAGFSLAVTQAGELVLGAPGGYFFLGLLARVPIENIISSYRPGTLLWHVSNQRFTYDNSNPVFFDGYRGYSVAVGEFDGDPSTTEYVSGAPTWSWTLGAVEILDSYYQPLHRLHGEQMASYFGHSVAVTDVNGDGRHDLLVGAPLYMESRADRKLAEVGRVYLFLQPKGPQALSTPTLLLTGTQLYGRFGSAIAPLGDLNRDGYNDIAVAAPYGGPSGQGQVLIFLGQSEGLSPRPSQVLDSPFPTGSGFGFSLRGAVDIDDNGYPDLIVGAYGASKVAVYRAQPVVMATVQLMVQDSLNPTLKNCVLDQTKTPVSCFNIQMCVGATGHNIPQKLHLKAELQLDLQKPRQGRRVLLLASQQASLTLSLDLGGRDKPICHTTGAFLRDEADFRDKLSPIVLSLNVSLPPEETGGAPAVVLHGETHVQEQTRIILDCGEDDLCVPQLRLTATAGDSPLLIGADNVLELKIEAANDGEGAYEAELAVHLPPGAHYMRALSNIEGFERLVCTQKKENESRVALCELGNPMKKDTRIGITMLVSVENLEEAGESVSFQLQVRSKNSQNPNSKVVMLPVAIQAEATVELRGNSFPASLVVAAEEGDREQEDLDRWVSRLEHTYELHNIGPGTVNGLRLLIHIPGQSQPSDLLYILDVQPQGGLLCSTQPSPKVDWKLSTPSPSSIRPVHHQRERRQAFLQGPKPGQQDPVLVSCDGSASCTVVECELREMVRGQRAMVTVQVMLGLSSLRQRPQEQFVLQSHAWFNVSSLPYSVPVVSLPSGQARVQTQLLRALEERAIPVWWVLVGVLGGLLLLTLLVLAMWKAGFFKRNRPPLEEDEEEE

Tests used:
[1] = biological target: talin1 (mouse (endogenous in platelets of C57BL/6J and P-sel-/- mice)) (UniProt P26039); assay: co-IP; lysates of platelets from P-sel-/- mice; immunoprecipitation with anti-talin1 mAb, immunoblot for αIIb
[2] = biological target: talin1 (mouse (endogenous in platelets of C57BL/6J and P-sel-/- mice)) (UniProt P26039); assay: co-IP; lysates of wild-type platelets from C57BL/6J mice; immunoprecipitation with anti-P-selectin Ab or anti-talin1 mAb, extensive washing, immunoblot
[3] = biological target: talin1 (mouse (endogenous in platelets of C57BL/6J and P-sel-/- mice)) (UniProt P26039); assay: co-IP; lysates of P-sel-/- platelets incubated with the cell-permeable P-sel-CT peptide TAT-CT (control peptide TAT); immunoprecipitation with anti-talin1 mAb, immunoblot for αIIb and talin1
[4] = biological target: T1, P-selectin (mouse (endogenous in platelets of C57BL/6J mice)) (UniProt Q01102); assay: co-IP; lysates of wild-type platelets from C57BL/6J mice; immunoprecipitation with anti-P-selectin Ab or anti-talin1 mAb, extensive washing, immunoblot
T1 sequence: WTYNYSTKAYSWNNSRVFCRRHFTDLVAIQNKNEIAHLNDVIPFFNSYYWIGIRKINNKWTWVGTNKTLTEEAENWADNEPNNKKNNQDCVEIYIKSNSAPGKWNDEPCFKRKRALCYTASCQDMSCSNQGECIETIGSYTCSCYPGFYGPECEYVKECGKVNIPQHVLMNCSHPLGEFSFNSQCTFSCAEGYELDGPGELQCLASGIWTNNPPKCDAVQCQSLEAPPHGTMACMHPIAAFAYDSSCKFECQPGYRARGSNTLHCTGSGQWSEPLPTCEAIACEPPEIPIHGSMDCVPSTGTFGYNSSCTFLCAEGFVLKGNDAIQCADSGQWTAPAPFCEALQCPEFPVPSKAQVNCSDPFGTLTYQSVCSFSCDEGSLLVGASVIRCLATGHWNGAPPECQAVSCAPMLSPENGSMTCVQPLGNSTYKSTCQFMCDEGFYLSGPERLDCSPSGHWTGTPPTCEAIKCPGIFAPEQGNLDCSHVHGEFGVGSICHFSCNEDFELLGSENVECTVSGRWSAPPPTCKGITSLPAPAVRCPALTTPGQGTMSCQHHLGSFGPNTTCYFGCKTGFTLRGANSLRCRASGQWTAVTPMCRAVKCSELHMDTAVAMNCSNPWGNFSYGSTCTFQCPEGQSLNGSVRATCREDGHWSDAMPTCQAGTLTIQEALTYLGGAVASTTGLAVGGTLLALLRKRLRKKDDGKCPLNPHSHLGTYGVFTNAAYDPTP

binding [1]: binds weakly
binding [2]: binds
binding [3]: binds
Molecule: integrin αIIbβ3 (from UniProt Q9QUM0 32-1033; O54890 26-787) (complex)

binding [4]: binds
Molecule: talin1 (from UniProt P26039 1-2541)

binding [2]: binds
B1: P-selectin (protein, UniProt Q01102 42-768)
chain: T1 sequence
